# Values quoted from earlier work as cited in US12564644B2, “Cyclodextrin complexes of specialized proresolving mediators” (THETIS PHARMACEUTICALS LLC, priority 2022, dated 2026).
# At least one structure is not confirmed: it was looked up by name or label, or the drawing left a doubt.
# Conditions: cited from earlier work
compound,measurement,value
"CCC(O)C=CC=CCC(O)C=CC=CC=CC(O)CCCC(=O)O (single isomer, unassigned) [6,7-trans isomer]",less activity in various assays (versus RvE1),70%
